# Data as given in the supplement of paper PMC8728848.
# This is one part of the list.
# B1: PhypaEULS3 (Physcomitrella patens) (protein)
# chain: MLPVRLHCKADPNFNLAAVPGQGPVMVPFSPNDDFQVWYKDVTMSTRVKDETGSSAFSLINKATGQALRHAPEDLAQCLLADYDSNALDQTVLWTMSEDMGQGYCCIRLASQITRNLDVFRGDKKSGGVKEGSPVITFAWKKQDNQIWKMITAILEQKLISEEDLNSAVDHHHHHH
# How the values were obtained:
# Test in all cases: glycan array binding signal (z-score within array); higher = stronger binding
# Details in all cases: glycan notation: IUPAC condensed, linker removed
# [1] = biological target: Fuc(a1-2)[Gal(a1-3)]Gal(b1-4)GlcNAc(b1-2)Man(a1-3)[Fuc(a1-2)[Gal(a1-3)]Gal(b1-4)GlcNAc(b1-2)Man(a1-6)]Man(b1-4)GlcNAc(b1-4)[Fuc(a1-6)]GlcNAc
# In short: (§1)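 The binding signal is a Z-score computed within each array. Data were drawn from 3228 arrays in the Consortium for Functional Glycomics database, restricted to those with a known protein sequence. Scores were averaged over arrays of the same protein sequence at different concentrations or buffers, and over linkers, and negative values can be taken as non-binding.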
# [2] = biological target: Fuc(a1-2)[Gal(a1-3)]Gal(b1-4)GlcNAc(b1-3)GalNAc
# In short: as §1
# [3] = biological target: Fuc(a1-2)[Gal(a1-3)]Gal(b1-4)GlcNAc(b1-3)[Fuc(a1-2)[Gal(a1-3)]Gal(b1-4)GlcNAc(b1-6)]GalNAc
# In short: as §1
# [4] = biological target: Fuc(a1-2)[Gal(a1-3)]Gal(b1-4)GlcNAc(b1-6)GalNAc
# In short: as §1
# [5] = biological target: Fuc(a1-2)[Gal(a1-3)]Gal(b1-4)[Fuc(a1-3)]Glc
# In short: as §1
# [6] = biological target: Fuc(a1-2)[Gal(a1-3)]Gal(b1-4)[Fuc(a1-3)]GlcNAc
# In short: as §1
# [7] = biological target: Fuc(a1-2)[Gal(a1-3)]Gal(b1-4)[Fuc(a1-3)]GlcNAc(b1-3)GalNAc
# In short: as §1
# [8] = biological target: Fuc(a1-2)[Gal(a1-4)]Gal(b1-4)GlcNAc
# In short: as §1
# [9] = biological target: Fuc(a1-2)[GalNAc(a1-3)]Gal
# In short: as §1
# [10] = biological target: Fuc(a1-2)[GalNAc(a1-3)]Gal(b1-3)GalNAc(a1-3)[Fuc(a1-2)]Gal(b1-4)GlcNAc
# In short: as §1
# [11] = biological target: Fuc(a1-2)[GalNAc(a1-3)]Gal(b1-3)GalNAc(b1-3)Gal(a1-4)Gal(b1-4)Glc
# In short: as §1
# [12] = biological target: Fuc(a1-2)[GalNAc(a1-3)]Gal(b1-3)GlcNAc
# In short: as §1
# [13] = biological target: Fuc(a1-2)[GalNAc(a1-3)]Gal(b1-3)GlcNAc(b1-2)Man(a1-3)[Fuc(a1-2)[GalNAc(a1-3)]Gal(b1-3)GlcNAc(b1-2)Man(a1-6)]Man(b1-4)GlcNAc(b1-4)GlcNAc
# In short: as §1
# [14] = biological target: Fuc(a1-2)[GalNAc(a1-3)]Gal(b1-3)GlcNAc(b1-2)Man(a1-3)[Fuc(a1-2)[GalNAc(a1-3)]Gal(b1-3)GlcNAc(b1-2)Man(a1-6)]Man(b1-4)GlcNAc(b1-4)[Fuc(a1-6)]GlcNAc
# In short: as §1
# [15] = biological target: Fuc(a1-2)[GalNAc(a1-3)]Gal(b1-3)GlcNAc(b1-3)GalNAc
# In short: as §1
# [16] = biological target: Fuc(a1-2)[GalNAc(a1-3)]Gal(b1-3)GlcNAc(b1-6)GalNAc
# In short: as §1
# [17] = biological target: Fuc(a1-2)[GalNAc(a1-3)]Gal(b1-4)Glc
# In short: as §1
# [18] = biological target: Fuc(a1-2)[GalNAc(a1-3)]Gal(b1-4)GlcNAc
# In short: as §1
# [19] = biological target: Fuc(a1-2)[GalNAc(a1-3)]Gal(b1-4)GlcNAc(b1-2)Man
# In short: as §1
# [20] = biological target: Fuc(a1-2)[GalNAc(a1-3)]Gal(b1-4)GlcNAc(b1-2)Man(a1-3)[Fuc(a1-2)[GalNAc(a1-3)]Gal(b1-4)GlcNAc(b1-2)Man(a1-6)]Man(b1-4)GlcNAc(b1-4)GlcNAc
# In short: as §1
# [21] = biological target: Fuc(a1-2)[GalNAc(a1-3)]Gal(b1-4)GlcNAc(b1-2)Man(a1-3)[Fuc(a1-2)[GalNAc(a1-3)]Gal(b1-4)GlcNAc(b1-2)Man(a1-6)]Man(b1-4)GlcNAc(b1-4)[Fuc(a1-6)]GlcNAc
# In short: as §1
# [22] = biological target: Fuc(a1-2)[GalNAc(a1-3)]Gal(b1-4)GlcNAc(b1-3)Gal(b1-4)GlcNAc
# In short: as §1
# [23] = biological target: Fuc(a1-2)[GalNAc(a1-3)]Gal(b1-4)GlcNAc(b1-3)Gal(b1-4)GlcNAc(b1-3)Gal(b1-4)GlcNAc
# In short: as §1
# [24] = biological target: Fuc(a1-2)[GalNAc(a1-3)]Gal(b1-4)GlcNAc(b1-3)GalNAc
# In short: as §1
# [25] = biological target: Fuc(a1-2)[GalNAc(a1-3)]Gal(b1-4)GlcNAc(b1-3)[Fuc(a1-2)[GalNAc(a1-3)]Gal(b1-4)GlcNAc(b1-6)]GalNAc
# In short: as §1
# [26] = biological target: Fuc(a1-2)[GalNAc(a1-3)]Gal(b1-4)GlcNAc(b1-6)GalNAc
# In short: as §1
# [27] = biological target: Fuc(a1-2)[GalNAc(a1-3)]Gal(b1-4)[Fuc(a1-3)]GlcNAc
# In short: as §1
# [28] = biological target: Fuc(a1-2)[GalNAc(a1-3)]Gal(b1-4)[Fuc(a1-3)]GlcNAc(b1-3)GalNAc
# In short: as §1
# [29] = biological target: Fuc(a1-2)[GalNAc(a1-4)]Gal(b1-4)GlcNAc
# In short: as §1
# [30] = biological target: Fuc(a1-2)[GalNAc(b1-3)]Gal
# In short: as §1
# Fuc(a1-3)GlcNAc = biological target: Fuc(a1-3)GlcNAc
# In short: as §1
# [31] = biological target: Fuc(a1-3)[Gal(b1-4)]Glc6S
# In short: as §1
# [32] = biological target: Fuc(a1-3)[Gal(b1-4)]GlcNAc
# In short: as §1
# [33] = biological target: Fuc(a1-3)[Gal(b1-4)]GlcNAc(b1-2)Man
# In short: as §1
# [34] = biological target: Fuc(a1-3)[Gal(b1-4)]GlcNAc(b1-2)Man(a1-3)[Fuc(a1-3)[Gal(b1-4)]GlcNAc(b1-2)Man(a1-6)]Man(b1-4)GlcNAc(b1-4)GlcNAc
# In short: as §1
# [35] = biological target: Fuc(a1-3)[Gal(b1-4)]GlcNAc(b1-2)Man(a1-3)[Fuc(a1-3)[Gal(b1-4)]GlcNAc(b1-2)Man(a1-6)]Man(b1-4)GlcNAc(b1-4)[Fuc(a1-6)]GlcNAc
# In short: as §1
# [36] = biological target: Fuc(a1-3)[Gal(b1-4)]GlcNAc(b1-3)Gal(b1-3)[Fuc(a1-4)]GlcNAc
# In short: as §1
# [37] = biological target: Fuc(a1-3)[Gal(b1-4)]GlcNAc(b1-3)Gal(b1-4)[Fuc(a1-3)]GlcNAc
# In short: as §1
# [38] = biological target: Fuc(a1-3)[Gal(b1-4)]GlcNAc(b1-3)Gal(b1-4)[Fuc(a1-3)]GlcNAc(b1-3)Gal(b1-4)[Fuc(a1-3)]GlcNAc
# In short: as §1
# [39] = biological target: Fuc(a1-3)[Gal(b1-4)]GlcNAc(b1-3)GalNAc
# In short: as §1
# [40] = biological target: Fuc(a1-3)[Gal(b1-4)]GlcNAc(b1-6)GalNAc
# In short: as §1
# [41] = biological target: Fuc(a1-3)[Gal(b1-4)]GlcNAc(b1-6)[Gal(b1-3)GlcNAc(b1-3)]Gal(b1-4)Glc
# In short: as §1
# [42] = biological target: Fuc(a1-3)[Gal(b1-4)]GlcNAc6S
# In short: as §1
# [43] = biological target: Fuc(a1-3)[Gal3S(b1-4)]Glc
# In short: as §1
# [44] = biological target: Fuc(a1-3)[Gal3S(b1-4)]GlcNAc
# In short: as §1
binder,measurement,setting,value
B1,glycan array binding signal (z-score),[1],0.392
same,glycan array binding signal (z-score),[2],-0.824
same,glycan array binding signal (z-score),[3],-0.647
same,glycan array binding signal (z-score),[4],0.22
same,glycan array binding signal (z-score),[5],-1.76
same,glycan array binding signal (z-score),[6],0.806
same,glycan array binding signal (z-score),[7],1.51
same,glycan array binding signal (z-score),[8],0.345
same,glycan array binding signal (z-score),[9],0.168
same,glycan array binding signal (z-score),[10],0.37
same,glycan array binding signal (z-score),[11],0.225
same,glycan array binding signal (z-score),[12],1.23
same,glycan array binding signal (z-score),[13],0.618
same,glycan array binding signal (z-score),[14],1.68
same,glycan array binding signal (z-score),[15],0.893
same,glycan array binding signal (z-score),[16],0.713
same,glycan array binding signal (z-score),[17],0.483
same,glycan array binding signal (z-score),[18],-0.027
same,glycan array binding signal (z-score),[19],0.82
same,glycan array binding signal (z-score),[20],-0.46
same,glycan array binding signal (z-score),[21],0.52
same,glycan array binding signal (z-score),[22],-0.839
same,glycan array binding signal (z-score),[23],-0.951
same,glycan array binding signal (z-score),[24],0.058
same,glycan array binding signal (z-score),[25],1.04
same,glycan array binding signal (z-score),[26],0.589
same,glycan array binding signal (z-score),[27],0.924
same,glycan array binding signal (z-score),[28],0.007
same,glycan array binding signal (z-score),[29],-0.967
same,glycan array binding signal (z-score),[30],-1.84
same,glycan array binding signal (z-score),Fuc(a1-3)GlcNAc,-0.803
same,glycan array binding signal (z-score),[31],-1.15
same,glycan array binding signal (z-score),[32],-0.792
same,glycan array binding signal (z-score),[33],1.34
same,glycan array binding signal (z-score),[34],-1.36
same,glycan array binding signal (z-score),[35],-0.138
same,glycan array binding signal (z-score),[36],0.906
same,glycan array binding signal (z-score),[37],1.15
same,glycan array binding signal (z-score),[38],-0.21
same,glycan array binding signal (z-score),[39],0.727
same,glycan array binding signal (z-score),[40],-0.754
same,glycan array binding signal (z-score),[41],2.22
same,glycan array binding signal (z-score),[42],-0.239
same,glycan array binding signal (z-score),[43],0.385
same,glycan array binding signal (z-score),[44],0.652

# 2 entries picked at random from those above:
binder,measurement,setting,value
B1,glycan array binding signal (z-score),[4],0.22
same,glycan array binding signal (z-score),[41],2.22
